{"sequences": {"note": "The chains behind the UniProt entries cited, without tags or fusion partners. Where a name states a change or a piece, a line headed by the entry shows the natural chain unless it says otherwise.", "UniProt Q8IWV8": "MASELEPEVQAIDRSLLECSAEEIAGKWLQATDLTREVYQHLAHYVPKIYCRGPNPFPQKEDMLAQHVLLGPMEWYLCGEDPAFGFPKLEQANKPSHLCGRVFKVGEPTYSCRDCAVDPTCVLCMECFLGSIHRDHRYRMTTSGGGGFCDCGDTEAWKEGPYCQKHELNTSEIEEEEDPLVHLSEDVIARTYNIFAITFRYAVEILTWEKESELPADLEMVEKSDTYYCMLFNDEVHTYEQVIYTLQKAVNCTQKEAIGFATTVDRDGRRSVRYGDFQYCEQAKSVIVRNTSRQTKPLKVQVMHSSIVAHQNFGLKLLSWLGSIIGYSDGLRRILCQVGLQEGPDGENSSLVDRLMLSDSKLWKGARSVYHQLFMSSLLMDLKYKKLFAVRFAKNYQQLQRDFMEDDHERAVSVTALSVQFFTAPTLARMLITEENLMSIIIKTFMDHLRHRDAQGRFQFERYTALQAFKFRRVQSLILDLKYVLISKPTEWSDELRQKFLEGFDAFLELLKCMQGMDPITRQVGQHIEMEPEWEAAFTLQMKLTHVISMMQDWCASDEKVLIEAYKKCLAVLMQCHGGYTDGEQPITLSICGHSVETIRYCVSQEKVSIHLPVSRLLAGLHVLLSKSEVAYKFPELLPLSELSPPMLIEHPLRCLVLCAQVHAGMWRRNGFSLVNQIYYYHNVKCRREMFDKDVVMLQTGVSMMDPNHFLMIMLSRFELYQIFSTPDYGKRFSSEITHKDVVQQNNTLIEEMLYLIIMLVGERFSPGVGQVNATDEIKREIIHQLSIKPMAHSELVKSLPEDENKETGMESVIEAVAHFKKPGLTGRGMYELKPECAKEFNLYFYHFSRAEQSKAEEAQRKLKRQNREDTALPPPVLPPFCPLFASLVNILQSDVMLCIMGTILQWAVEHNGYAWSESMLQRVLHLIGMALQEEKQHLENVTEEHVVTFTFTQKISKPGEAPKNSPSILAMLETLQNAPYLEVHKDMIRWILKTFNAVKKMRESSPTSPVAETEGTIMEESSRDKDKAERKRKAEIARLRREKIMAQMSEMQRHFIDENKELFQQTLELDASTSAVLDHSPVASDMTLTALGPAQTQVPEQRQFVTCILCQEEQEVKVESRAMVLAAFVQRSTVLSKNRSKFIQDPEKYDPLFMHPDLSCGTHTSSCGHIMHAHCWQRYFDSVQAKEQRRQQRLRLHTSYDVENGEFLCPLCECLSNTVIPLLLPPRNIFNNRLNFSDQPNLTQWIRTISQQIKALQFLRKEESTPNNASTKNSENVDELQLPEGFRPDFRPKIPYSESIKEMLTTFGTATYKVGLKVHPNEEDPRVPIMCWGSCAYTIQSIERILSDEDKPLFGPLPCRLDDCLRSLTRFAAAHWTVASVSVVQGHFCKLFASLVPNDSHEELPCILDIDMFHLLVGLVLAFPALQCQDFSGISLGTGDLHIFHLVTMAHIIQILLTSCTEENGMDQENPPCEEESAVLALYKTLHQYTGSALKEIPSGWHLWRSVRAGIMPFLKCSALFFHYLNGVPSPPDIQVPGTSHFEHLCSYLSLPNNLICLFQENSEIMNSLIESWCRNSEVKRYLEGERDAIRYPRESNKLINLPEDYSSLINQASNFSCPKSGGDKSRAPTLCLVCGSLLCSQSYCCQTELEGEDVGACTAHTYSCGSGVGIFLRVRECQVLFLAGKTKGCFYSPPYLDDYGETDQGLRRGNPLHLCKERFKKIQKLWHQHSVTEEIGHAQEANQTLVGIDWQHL", "UniProt Q9NZ09": "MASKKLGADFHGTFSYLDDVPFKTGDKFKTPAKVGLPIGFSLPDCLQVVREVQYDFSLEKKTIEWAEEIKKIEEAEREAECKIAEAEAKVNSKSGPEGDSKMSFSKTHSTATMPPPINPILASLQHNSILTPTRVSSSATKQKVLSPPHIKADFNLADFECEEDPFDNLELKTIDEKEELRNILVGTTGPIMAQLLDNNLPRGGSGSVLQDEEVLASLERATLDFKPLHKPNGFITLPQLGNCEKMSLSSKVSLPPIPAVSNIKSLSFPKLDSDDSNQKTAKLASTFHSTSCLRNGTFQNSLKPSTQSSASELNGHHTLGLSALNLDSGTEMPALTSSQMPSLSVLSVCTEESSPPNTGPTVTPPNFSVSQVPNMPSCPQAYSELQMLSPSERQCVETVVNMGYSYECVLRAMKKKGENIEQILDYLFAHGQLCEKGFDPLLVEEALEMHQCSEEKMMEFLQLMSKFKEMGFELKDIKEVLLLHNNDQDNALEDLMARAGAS", "UniProt O15042": "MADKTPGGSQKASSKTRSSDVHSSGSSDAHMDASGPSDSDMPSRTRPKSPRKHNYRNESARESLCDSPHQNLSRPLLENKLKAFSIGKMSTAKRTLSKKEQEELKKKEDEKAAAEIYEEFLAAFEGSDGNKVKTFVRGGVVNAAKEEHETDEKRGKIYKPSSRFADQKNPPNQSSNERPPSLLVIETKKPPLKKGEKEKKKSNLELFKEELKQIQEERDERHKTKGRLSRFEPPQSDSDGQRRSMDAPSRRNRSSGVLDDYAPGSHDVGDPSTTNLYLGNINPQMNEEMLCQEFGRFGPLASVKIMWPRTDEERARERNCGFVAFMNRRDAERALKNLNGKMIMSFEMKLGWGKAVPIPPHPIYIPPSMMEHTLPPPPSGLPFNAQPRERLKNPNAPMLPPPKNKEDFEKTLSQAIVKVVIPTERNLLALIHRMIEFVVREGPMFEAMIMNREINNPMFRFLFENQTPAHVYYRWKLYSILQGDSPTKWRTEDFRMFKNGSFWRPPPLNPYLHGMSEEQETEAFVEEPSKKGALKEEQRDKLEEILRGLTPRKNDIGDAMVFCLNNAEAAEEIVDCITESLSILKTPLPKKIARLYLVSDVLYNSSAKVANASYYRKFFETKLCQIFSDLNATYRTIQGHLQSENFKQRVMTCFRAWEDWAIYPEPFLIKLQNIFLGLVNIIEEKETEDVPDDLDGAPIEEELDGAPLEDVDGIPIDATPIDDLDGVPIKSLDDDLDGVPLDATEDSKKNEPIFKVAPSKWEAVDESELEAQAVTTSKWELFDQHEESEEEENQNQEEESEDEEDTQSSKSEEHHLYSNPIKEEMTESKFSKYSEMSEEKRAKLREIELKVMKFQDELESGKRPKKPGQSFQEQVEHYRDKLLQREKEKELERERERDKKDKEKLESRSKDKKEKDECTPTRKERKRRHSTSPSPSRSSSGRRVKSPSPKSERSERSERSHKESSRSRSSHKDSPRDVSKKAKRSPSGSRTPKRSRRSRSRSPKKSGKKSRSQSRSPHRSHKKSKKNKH", "UniProt O43396": "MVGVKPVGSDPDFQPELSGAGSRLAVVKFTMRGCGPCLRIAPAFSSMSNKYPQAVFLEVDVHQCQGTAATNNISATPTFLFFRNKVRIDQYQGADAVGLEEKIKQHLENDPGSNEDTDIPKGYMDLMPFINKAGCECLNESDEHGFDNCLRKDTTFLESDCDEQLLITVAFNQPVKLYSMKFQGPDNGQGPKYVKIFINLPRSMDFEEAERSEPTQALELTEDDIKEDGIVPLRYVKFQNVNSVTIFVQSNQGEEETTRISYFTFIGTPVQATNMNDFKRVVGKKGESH", "UniProt Q9BZF9": "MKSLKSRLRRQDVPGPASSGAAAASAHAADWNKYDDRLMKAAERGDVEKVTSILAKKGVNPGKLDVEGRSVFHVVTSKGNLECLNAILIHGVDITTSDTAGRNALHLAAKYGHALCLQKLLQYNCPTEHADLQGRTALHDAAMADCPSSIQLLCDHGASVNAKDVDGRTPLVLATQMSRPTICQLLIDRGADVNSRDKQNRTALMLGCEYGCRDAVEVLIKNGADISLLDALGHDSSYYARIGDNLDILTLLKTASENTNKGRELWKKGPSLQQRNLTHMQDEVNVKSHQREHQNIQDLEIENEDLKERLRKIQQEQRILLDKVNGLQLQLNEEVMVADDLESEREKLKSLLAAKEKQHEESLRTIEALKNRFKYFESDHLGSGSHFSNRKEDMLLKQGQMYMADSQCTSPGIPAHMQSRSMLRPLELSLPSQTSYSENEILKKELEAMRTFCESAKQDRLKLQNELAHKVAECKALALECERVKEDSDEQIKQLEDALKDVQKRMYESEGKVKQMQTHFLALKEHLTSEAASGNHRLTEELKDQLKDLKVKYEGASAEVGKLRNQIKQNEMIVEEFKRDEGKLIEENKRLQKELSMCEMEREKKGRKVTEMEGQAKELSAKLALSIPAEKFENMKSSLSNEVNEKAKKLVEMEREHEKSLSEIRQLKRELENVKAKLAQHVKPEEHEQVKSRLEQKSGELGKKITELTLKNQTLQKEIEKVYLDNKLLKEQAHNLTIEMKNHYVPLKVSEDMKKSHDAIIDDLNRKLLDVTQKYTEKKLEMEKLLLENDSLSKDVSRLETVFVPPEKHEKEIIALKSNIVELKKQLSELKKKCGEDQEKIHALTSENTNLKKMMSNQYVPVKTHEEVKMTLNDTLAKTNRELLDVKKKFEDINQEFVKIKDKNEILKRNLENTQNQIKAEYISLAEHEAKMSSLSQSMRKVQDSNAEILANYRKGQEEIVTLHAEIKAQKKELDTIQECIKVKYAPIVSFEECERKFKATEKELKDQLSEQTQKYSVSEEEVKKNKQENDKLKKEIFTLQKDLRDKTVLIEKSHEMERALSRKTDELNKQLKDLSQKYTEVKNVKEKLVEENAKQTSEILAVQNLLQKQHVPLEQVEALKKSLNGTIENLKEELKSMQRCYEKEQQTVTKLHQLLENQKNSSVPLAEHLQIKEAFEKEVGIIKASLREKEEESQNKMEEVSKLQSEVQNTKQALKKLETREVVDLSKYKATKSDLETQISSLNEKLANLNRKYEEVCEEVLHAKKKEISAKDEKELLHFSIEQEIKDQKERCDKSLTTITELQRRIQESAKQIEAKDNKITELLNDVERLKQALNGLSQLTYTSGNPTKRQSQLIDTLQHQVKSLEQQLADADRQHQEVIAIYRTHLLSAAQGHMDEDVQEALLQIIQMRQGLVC", "UniProt Q05086": "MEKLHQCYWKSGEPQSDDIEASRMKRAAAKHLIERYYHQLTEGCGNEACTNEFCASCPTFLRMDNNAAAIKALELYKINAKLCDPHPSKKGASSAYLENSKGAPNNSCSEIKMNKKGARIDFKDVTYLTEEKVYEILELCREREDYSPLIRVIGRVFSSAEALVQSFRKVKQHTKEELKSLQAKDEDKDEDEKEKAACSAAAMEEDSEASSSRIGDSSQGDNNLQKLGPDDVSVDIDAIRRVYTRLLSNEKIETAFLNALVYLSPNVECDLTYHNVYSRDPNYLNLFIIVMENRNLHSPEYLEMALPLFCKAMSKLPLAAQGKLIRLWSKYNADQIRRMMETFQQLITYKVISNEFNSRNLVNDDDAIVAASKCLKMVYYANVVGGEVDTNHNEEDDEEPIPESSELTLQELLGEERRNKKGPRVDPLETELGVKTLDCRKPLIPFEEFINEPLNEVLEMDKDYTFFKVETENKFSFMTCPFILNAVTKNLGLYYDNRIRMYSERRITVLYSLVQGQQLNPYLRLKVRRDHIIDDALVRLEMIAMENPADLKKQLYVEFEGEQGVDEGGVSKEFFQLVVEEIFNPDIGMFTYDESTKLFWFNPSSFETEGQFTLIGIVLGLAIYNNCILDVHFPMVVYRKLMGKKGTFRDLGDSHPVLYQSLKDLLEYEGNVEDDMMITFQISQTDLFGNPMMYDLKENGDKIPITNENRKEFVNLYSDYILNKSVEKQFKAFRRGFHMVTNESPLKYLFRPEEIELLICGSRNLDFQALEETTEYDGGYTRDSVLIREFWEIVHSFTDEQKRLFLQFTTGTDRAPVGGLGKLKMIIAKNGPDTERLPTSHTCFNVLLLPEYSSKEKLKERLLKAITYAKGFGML", "UniProt P11441": "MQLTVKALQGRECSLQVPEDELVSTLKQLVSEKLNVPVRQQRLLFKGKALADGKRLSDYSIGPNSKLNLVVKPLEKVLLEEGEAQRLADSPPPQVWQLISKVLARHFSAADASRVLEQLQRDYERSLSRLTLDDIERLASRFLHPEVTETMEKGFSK", "UniProt Q9NNW7, whole entry, looked up": "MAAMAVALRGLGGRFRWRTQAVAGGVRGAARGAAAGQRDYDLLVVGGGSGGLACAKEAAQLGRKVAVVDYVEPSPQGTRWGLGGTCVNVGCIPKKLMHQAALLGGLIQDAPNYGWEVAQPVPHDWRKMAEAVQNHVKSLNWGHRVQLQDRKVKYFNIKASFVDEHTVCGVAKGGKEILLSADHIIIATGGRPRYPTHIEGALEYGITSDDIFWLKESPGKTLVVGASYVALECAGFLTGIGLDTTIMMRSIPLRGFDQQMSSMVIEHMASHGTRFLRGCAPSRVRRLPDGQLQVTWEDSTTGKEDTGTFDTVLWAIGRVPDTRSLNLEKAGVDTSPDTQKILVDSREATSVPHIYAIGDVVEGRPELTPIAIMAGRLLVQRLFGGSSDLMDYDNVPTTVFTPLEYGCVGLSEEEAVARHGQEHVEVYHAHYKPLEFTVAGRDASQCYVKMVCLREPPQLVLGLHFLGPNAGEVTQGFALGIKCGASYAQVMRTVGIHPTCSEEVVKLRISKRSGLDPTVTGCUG"}, "source": "the supplement of paper PMC12067093", "about": "“Discovery and optimisation of a covalent ligand for TRIM25 and its application to targeted protein ubiquitination” (Chemical Science, 2025)", "note": "The other results are listed elsewhere or left out.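 Further: competitive chemoproteomic profiling in live THP-1 cells with an iodoacetamide desthiobiotin (IA-DTB) probe, comparing probe-labelled peptide intensities in compound-treated cells against DMSO-treated controls.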", "data": [{"compound": "CC1Cc2ccccc2N1C(=O)C1CCCN(C1)C(=O)CCl (mixture of isomers) [TRIM25 ligand 11 (diastereomer mixture)]", "test": "probe-labelled cysteine peptide fold change vs DMSO (competition) (log2 fold change); higher = less target engagement (more negative = stronger competition)", "settings": "10 µM; THP-1; incubation time: 4 h", "values": [{"target": "UBA2_Q9UBT2_161_GVTECYECHPKPTQR (UniProt Q9UBT2)", "probe-labelled cysteine peptide fold change": 0.0622}, {"target": "UBR2_Q8IWV8_99_LEQANKPSHLCGR (UniProt Q8IWV8)", "probe-labelled cysteine peptide fold change": -0.0532}, {"target": "UBR3_Q6ZT12_288_DLTSGLGENACVK (UniProt Q6ZT12)", "probe-labelled cysteine peptide fold change": -0.00485}, {"target": "UAP1_Q16222_251_GIWSIHVYCVDNILVK (UniProt Q16222)", "probe-labelled cysteine peptide fold change": -0.469}, {"target": "UBA7_P41226_829_CQNYGIPPVNR (UniProt P41226)", "probe-labelled cysteine peptide fold change": 0.043}, {"target": "UBAP1_Q9NZ09_434_GENIEQILDYLFAHGQLCEK (UniProt Q9NZ09)", "probe-labelled cysteine peptide fold change": -0.0983}, {"target": "TXNRD1_Q16881_214_WGLGGTCVNVGCIPKK (UniProt Q16881)", "probe-labelled cysteine peptide fold change": -0.351}, {"target": "UBA3_Q8TBC4_139_AEVAAEFLNDRVPNCNVVPHFNK (UniProt Q8TBC4)", "probe-labelled cysteine peptide fold change": 0.0621}, {"target": "UBE2K_P61086_92_IWHPNISSVTGAICLDILK (UniProt P61086)", "probe-labelled cysteine peptide fold change": 0.107}, {"target": "UBR2_Q8IWV8_336_ILCQVGLQEGPDGENSSLVDR (UniProt Q8IWV8)", "probe-labelled cysteine peptide fold change": -0.00789}, {"target": "U2SURP_O15042_918_EKDECTPTRK (UniProt O15042)", "probe-labelled cysteine peptide fold change": -0.147}, {"target": "UBL5_Q9BZL1_6_MIEVVCNDR (UniProt Q9BZL1)", "probe-labelled cysteine peptide fold change": -0.083}, {"target": "UBASH3B_Q8TF42_130+135_AHNIFPHITLCQFFMCEDSKVDALGEALQTTVSR (UniProt Q8TF42)", "probe-labelled cysteine peptide fold change": -0.0969}, {"target": "UBR5_O95071_1093_LLCDSVVLQPYLR (UniProt O95071)", "probe-labelled cysteine peptide fold change": -0.0536}, {"target": "TXNL1_O43396_135+137_AGCECLNESDEHGFDNCLR (UniProt O43396)", "probe-labelled cysteine peptide fold change": 0.0807}, {"target": "UBE4A_Q14139_175_HIFCYLYSCFQR (UniProt Q14139)", "probe-labelled cysteine peptide fold change": 0.141}, {"target": "UBA52_P62987_115_CGHTNNLRPK (UniProt P62987)", "probe-labelled cysteine peptide fold change": -0.132}, {"target": "UACA_Q9BZF9_980_ELDTIQECIK (UniProt Q9BZF9)", "probe-labelled cysteine peptide fold change": -0.146}, {"target": "UBA7_P41226_996_VLVLELSCEGDDEDTAFPPLHYEL (UniProt P41226)", "probe-labelled cysteine peptide fold change": -0.0956}, {"target": "UBA7_P41226_289_SLDTALLQPHVVAQSSQEVHHAHCLHQAFCALHK (UniProt P41226)", "probe-labelled cysteine peptide fold change": -0.108}, {"target": "UAP1L1_Q3KQV9_57_AAEACAR (UniProt Q3KQV9)", "probe-labelled cysteine peptide fold change": 0.0309}, {"target": "UBR2_Q8IWV8_1717_GNPLHLCK (UniProt Q8IWV8)", "probe-labelled cysteine peptide fold change": 0.0377}, {"target": "UBE2O_Q9C0C9_585_SNDLFPVHHLDNNEFCPGDFVVDKR (UniProt Q9C0C9)", "probe-labelled cysteine peptide fold change": -0.124}, {"target": "U2SURP_O15042_320_NCGFVAFMNR (UniProt O15042)", "probe-labelled cysteine peptide fold change": 0.16}, {"target": "UBE3A_Q05086_760_YLFRPEEIELLICGSR (UniProt Q05086)", "probe-labelled cysteine peptide fold change": -0.0125}, {"target": "TXNDC5_Q8NBS9_217_FFAPWCGHCK (UniProt Q8NBS9)", "probe-labelled cysteine peptide fold change": -0.073}, {"target": "UBAP1_Q9NZ09_161_ADFNLADFECEEDPFDNLELK (UniProt Q9NZ09)", "probe-labelled cysteine peptide fold change": -0.087}, {"target": "TXNL1_O43396_135+137+149_AGCECLNESDEHGFDNCLR (UniProt O43396)", "probe-labelled cysteine peptide fold change": -0.02}, {"target": "UBL4A_P11441_13_ECSLQVPEDELVSTLK (UniProt P11441)", "probe-labelled cysteine peptide fold change": -0.132}, {"target": "UBR4_Q5T4S7_4838+4841_QMEELIEEPGLTCCICR (UniProt Q5T4S7)", "probe-labelled cysteine peptide fold change": 0.0403}, {"target": "UBA1_P22314_711_SLVLQRPQTWADCVTWACHHWHTQYSNNIR (UniProt P22314)", "probe-labelled cysteine peptide fold change": 0.0038}, {"target": "UBR4_Q5T4S7_4890_QQGYSTVSHFNIVHYDCHLAAVR (UniProt Q5T4S7)", "probe-labelled cysteine peptide fold change": -0.0243}, {"target": "UBA1_P22314_481_YFLVGAGAIGCELLK (UniProt P22314)", "probe-labelled cysteine peptide fold change": 0.0132}, {"target": "TXNRD2_Q9NNW7_54_DYDLLVVGGGSGGLACAK (UniProt Q9NNW7)", "probe-labelled cysteine peptide fold change": -0.0677}, {"target": "UBR1_Q8IWV7_1603_NSLIELPDDYSCLLNQASHFR (UniProt Q8IWV7)", "probe-labelled cysteine peptide fold change": -0.017}]}]}
